Data as given in PubChem BioAssay AID504793 (Drosophila RNAi Screening Center, 2011)

Test: 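Knock-downs allowing continued mitosis even though DNA is damaged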 (primary screen)
System: Drosophila S2R+ cells
Reagent: long dsRNA against Drosophila genes, about 0.25 µg dsRNA per well
Timing: 4 days of dsRNA, then 4 hours of drug before read-out
Treatment: doxorubicin 0.5 µM for 4 hours to cause double-strand breaks, in cells also given a low, harmless dose of dsRNA against nbs to sensitise the assay
Measured: 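Mitotic index as the number of phospho-histone H3-positive cells in each well following doxorubicin, given as raw counts without normalisation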
Reading the numbers: mitotic cells: higher = more cells in mitosis, weaker G2 arrest
Rule for the call: 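Genes are called active only when high mitotic counts were reproduced with independent dsRNAs and mitosis was checked for delay without damage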
Calls: active = confirmed in follow-up tests; inactive = not confirmed
The deposit covers about 23,000 reagents; shown is an unselected part of those that have a named target and a result. Over the whole deposit, 62 (0.27%) were called active. 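Calls come from follow-up tests whose scores are not deposited, so confirmed genes may have low counts here; counts are not normalised per plate.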 Raw values vary from plate to plate and are shown uncorrected. A plus sign joins genes that one reagent is predicted to hit.

gene knocked down	dsRNA	mitotic cells, replicate 1	Outcome
sw	DRSC20388	18	inactive
salt	DRSC15427	10	inactive
salt	DRSC25514	3	inactive
Csk	DRSC12861	14	inactive
Csk	DRSC23272	2	inactive
Csk	DRSC26697	8	inactive
Spn28Db	DRSC22033	9	inactive
Pka-R1	DRSC11674	5	inactive
Pka-R1	DRSC11875	4	inactive
Pka-R1	DRSC25205	6	inactive
in	DRSC11888	4	inactive
ZIPIC	DRSC16349	7	inactive
SdhC	DRSC16088	13	inactive
Cyp18a1	DRSC20235	8	inactive
Cyp18a1	DRSC27063	3	inactive
CG4025	DRSC18523	11	inactive
CG5989	DRSC10565	2	inactive
CG4646	DRSC06876	6	inactive
Fit1	DRSC08450	4	inactive
Fit1	DRSC24407	1	inactive
CG8323	DRSC07149	15	inactive
CG42271	DRSC19809	8	inactive
CG42271	DRSC22894	6	inactive
CG42271	DRSC27249	8	inactive
CG42271	DRSC27338	9	inactive
CG31523	DRSC12009	10	inactive
CG31523	DRSC12337	10	inactive
CG31523	DRSC27253	5	inactive
Z600	DRSC11317	3	inactive
CG4679	DRSC06880	5	inactive
CG4679	DRSC28357	4	inactive
CG7328	DRSC10812	7	inactive
CG30392	DRSC22341	10	inactive
Blos3	DRSC09573	9	inactive
CG13016	DRSC06271	9	inactive
Muc4B	DRSC18062	6	inactive
Muc4B	DRSC18063	9	inactive
Muc4B	DRSC29148	3	inactive
CG42557 + CG42558	DRSC13963	10	inactive
CG42557 + CG42558	DRSC16329	11	inactive
CG1545	DRSC21532	9	inactive
svp	DRSC12899	34	inactive
svp	DRSC17075	5	inactive
svp	DRSC27764	7	inactive
CG15254	DRSC01870	11	inactive
CG15254	DRSC21765	4	inactive
CG15254	DRSC29568	6	inactive
Irc	DRSC16454	3	inactive
Irc	DRSC28100	12	inactive
CG9649	DRSC16534	6	inactive
CG9649	DRSC23552	10	inactive
pigs	DRSC17472	12	inactive
pigs	DRSC18334	16	inactive
pigs	DRSC18335	7	inactive
CG11262	DRSC09831	10	inactive
ND-15	DRSC00311	6	inactive
egr	DRSC06233	5	inactive
CG31115	DRSC13692	19	inactive
CG31115	DRSC26097	5	inactive
CG12769	DRSC25056	2	inactive
eIF4A	DRSC03526	12	inactive
eIF4A	DRSC26043	9	inactive
CG14647	DRSC12233	4	inactive
CG14647	DRSC22497	12	inactive
CG12699	DRSC06162	8	inactive
CG12699	DRSC25679	5	inactive
Dscam4	DRSC08913	5	inactive
Dscam4	DRSC10031	4	inactive
Dscam4	DRSC10329	6	inactive
Dscam4	DRSC10765	8	inactive
Dscam4	DRSC27460	5	inactive
Cpr49Ad	DRSC07284		inactive
ms(2)35Ci	DRSC01460	7	inactive
CG9426	DRSC03219	9	inactive
Gr77a	DRSC11446	6	inactive
Gr77a	DRSC26808	6	inactive
Prx6c	DRSC06080	9	inactive
Prx6c	DRSC28598	8	inactive
CG14309	DRSC14788	9	inactive
Cyp313a3	DRSC16626	5	inactive
CG32945	DRSC12014	3	inactive
CG4835	DRSC10452	4	inactive
CG4835	DRSC23696	1	inactive
CG10237	DRSC02029	14	inactive
Acer	DRSC01852	6	inactive
Tcs3	DRSC10461	4	inactive
Tcs3	DRSC29969	15	inactive
Dpm1	DRSC02018	5	inactive
CG13671	DRSC10030	2	inactive
CG14502	DRSC06473	2	inactive
CG7264	DRSC10793	2	inactive
CG7264	DRSC26046	1	inactive
CG2246	DRSC15433	9	inactive
CG14230	DRSC19586	7	inactive
CG14230	DRSC29188	2	inactive
CG30334	DRSC05345	9	inactive
CG30334	DRSC24086	6	inactive
Or98P	DRSC22948	7	inactive
Or98P	DRSC25899	5	inactive
CG11294	DRSC17777	11	inactive
CG11294	DRSC25060	2	inactive
CG13097	DRSC02199	4	inactive
CG3434	DRSC10365	2	inactive
ATPCL	DRSC05913	10	inactive
ATPCL	DRSC27809	3	inactive
CG14840	DRSC14964	6	inactive
CG14840	DRSC27978	8	inactive
beat-Vb	DRSC12940	9	inactive
beat-Vb	DRSC14844	9	inactive
beat-Vb	DRSC14845	7	inactive
CG14740	DRSC14960	4	inactive
AnxB11	DRSC19331	6	inactive
AnxB11	DRSC26479	12	inactive
CG6695	DRSC16098	7	inactive
CG6695	DRSC24623	8	inactive
TBC1D5	DRSC16421	8	inactive
TBC1D5	DRSC27219	7	inactive
Inos	DRSC07655	9	inactive
Inos	DRSC27019	3	inactive
CG13377	DRSC18622	4	inactive
CG30156	DRSC04959	5	inactive
Thor	DRSC00770	2	inactive
Mgat4a	DRSC09326	7	inactive
Mgat4a	DRSC11070	9	inactive
BigH1	DRSC15491	9	inactive
BigH1	DRSC27817	4	inactive
mRpS28	DRSC06939	6	inactive
PGRP-SC2	DRSC06481	5	inactive
PGRP-SC2	DRSC25449	3	inactive
CheB93b	DRSC21762	4	inactive
CG6479	DRSC10647		inactive
CG13689	DRSC00358	8	inactive
Cpr49Ag	DRSC07203	4	inactive
Cpr49Ag	DRSC28612	6	inactive
CG10841	DRSC14271	6	inactive
CG10841	DRSC28142	4	inactive
CG9782	DRSC19145	26	inactive
CG9782	DRSC20209	7	inactive
CG9782	DRSC25115	9	inactive
byn	DRSC11332	4	inactive
byn	DRSC29142	6	inactive

In a second layout: entries from further up.
gene knocked down | dsRNA | mitotic cells, replicate 1 | Outcome
beat-Vb | DRSC12940 | 9 | inactive
beat-Vb | DRSC14844 | 9 | inactive
beat-Vb | DRSC14845 | 7 | inactive
CG14740 | DRSC14960 | 4 | inactive
AnxB11 | DRSC19331 | 6 | inactive
AnxB11 | DRSC26479 | 12 | inactive
CG6695 | DRSC16098 | 7 | inactive
CG6695 | DRSC24623 | 8 | inactive
TBC1D5 | DRSC16421 | 8 | inactive
TBC1D5 | DRSC27219 | 7 | inactive
Inos | DRSC07655 | 9 | inactive
Inos | DRSC27019 | 3 | inactive
CG13377 | DRSC18622 | 4 | inactive
CG30156 | DRSC04959 | 5 | inactive
Thor | DRSC00770 | 2 | inactive
Mgat4a | DRSC09326 | 7 | inactive
Mgat4a | DRSC11070 | 9 | inactive
BigH1 | DRSC15491 | 9 | inactive
BigH1 | DRSC27817 | 4 | inactive
mRpS28 | DRSC06939 | 6 | inactive
PGRP-SC2 | DRSC06481 | 5 | inactive
PGRP-SC2 | DRSC25449 | 3 | inactive
CheB93b | DRSC21762 | 4 | inactive
